Some entries share one result that the patent states for a list of compounds. At least one compound was matched to its structure with a doubt left.
System: soybean plants comprising EE-GM3
Experiment: replicated field trial, crop tolerance to HPPD inhibitor herbicides
Format: in vivo, Glycine max
Conditions: Agridex

Row | Compound | crop tolerance (bleaching) (treated either pre- or post-emergence, 70 gr ai/ha with 0.5% NIS) | crop tolerance (bleaching) (post-emergence application, 35 gr ai/ha with 0.5% NIS)
1 | CS(=O)(=O)c1cc(C(F)(F)F)ccc1C(=O)c1cnoc1C1CC1 [IFT, (5-cyclopropyl-4-isoxazolyl)[2-(methylsulfonyl)-4-(trifluoromethyl)phenyl]methanone] | less than 10% | 
2 | Cc1nn(C)c(O)c1C(=O)c1ccc(C(F)(F)F)cc1S(C)(=O)=O [pyrasulfotole] |  | less than 10%

— patent US9062324B2, “Herbicide tolerant soybean plants and methods for identifying same” (M.S. TECHNOLOGIES LLC, priority 2009, dated 2015)
